According to patent US20240369511A1, “INTEGRATED ELECTROCHEMICAL APTASENSORS FOR MEASURING CELL DEATH AND CYTOKINE ACTIVITY FROM INTACT TISSUE SAMPLES” (University of Washington, priority 2023, published 2024):
For at least one entry, the source does not settle the construct or the ends of the probe. Weaker means in comparison with the reference protein, sequence or condition of that experiment.

Tested on: Fibroblast growth factor (FGF) (Homo sapiens)
Experiment: binding assay
Details: 5' ThioMC6-D (disulfide C6 thiol, attached to gold electrode); 3' amino modifier conjugated to methylene blue; 100 ng/mL, growth medium, SWV 50 Hz; signal gain lower than CytC; purified recombinant protein; label: 3' methylene blue; single-stranded DNA

Sequence: CCGTGTCTGGGGCCGACCGGCGCATTGGGTACGTTGTTGC [CytC aptamer (SEQ ID NO:1)]
- binding result: binds more weakly
